Source: PubChem BioAssay AID1794845 (National Center for Advancing Translational Sciences (NCATS), 2023)
Fewer than 10 of roughly 6,900 compounds were called active. Calls come from the whole dose curve; as a rule, active = well fitted curve in the direction sought with a large enough effect; inconclusive = small, poorly fitted or top-dose-only effect, or another doubt; inactive = no such curve, though single readings can be large or run the other way. This is one part of the list.

Chains of the proteins cited; added tags and fusions are not shown. Lines headed by an entry give the natural chain unless they say otherwise; changes in a name come on top.
UniProt C7C422: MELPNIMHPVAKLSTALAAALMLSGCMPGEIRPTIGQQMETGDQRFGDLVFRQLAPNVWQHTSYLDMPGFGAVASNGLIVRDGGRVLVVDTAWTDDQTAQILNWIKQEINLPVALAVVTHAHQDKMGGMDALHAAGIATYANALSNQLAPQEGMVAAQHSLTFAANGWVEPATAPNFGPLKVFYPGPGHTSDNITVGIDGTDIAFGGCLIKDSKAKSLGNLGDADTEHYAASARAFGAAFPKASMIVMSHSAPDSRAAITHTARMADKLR

Molecular target: Metallo-beta-lactamase type 2 (Klebsiella pneumoniae) (UniProt C7C422)
Assay: qHTS to identify inhibitors of the New Delhi Metallo-beta-lactamase (NDM): primary screen against the NCATS Gemini Collection; note: % of control where 0% means no effect
Settings: NDM-1 enzyme, meropenem hydrolysis, absorbance 300 nm; at 38.4 µM (top of the series) unless noted
In short: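 Meropenem hydrolysis (50 uM final) by 2 nM NDM-1 read as 300 nm absorbance after 30 min, following >30 min compound–enzyme preincubation in HEPES pH 7.0 with 1 uM ZnSO4 and 0.01% Tween20.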

Activity % (negative = inhibition), inactive:
CCc1noc([C@@H]2CC(F)(F)CN2C(=O)Cc2cccnc2)n1 4.57%, O=C(O)CCc1conc1-c1ccc(F)cc1 1.88%, O=C1CO[C@H]2CN(c3ncccn3)C[C@H]2N1CC1CCCCC1 53.2% [at 57.5 µM], CN(C)c1ccc(C(=O)N[C@H]2C[C@H]3C(=O)NC[C@@H](CCC(=O)N4CCc5ccccc54)N3C2)cc1 16.9%, CCc1nc2c(=O)n(CC(=O)N3CCN(c4cccc(C)c4C)CC3)nc(C)c2s1 7.54%, O=S(=O)(NCC1Cn2cccc2CN1Cc1ccccc1)c1ccccc1 (stereo not drawn) 6.91%, CN1[C@@H](CCC(=O)NCc2ccco2)CNC(=O)[C@@H]2[C@H]1CCN2Cc1nc2ccccc2n1C 22.9%, CN(Cc1ccccc1)C(=O)[C@H]1O[C@H](CCN2CCOCC2)CC[C@@H]1O -0.861% [at 57.5 µM], COc1ccccc1N1CCN(C(=O)CCc2conc2-c2cccc(F)c2)CC1 12.3%, CCNC(=O)N1CCCCCCNC(=O)[C@@H]2C[C@@H](c3nc(Cc4ccccc4)no3)C[C@@H]21 9.43%, CNC(=O)C1(N2CCC[C@H]2C(=O)N2CC[C@@H](O)C2)CCCCC1 -3.69% [at 57.5 µM], CCCn1cc(-c2ccncc2)cc1C(=O)NCc1ccc(C)o1 33.3%, Cc1ccc(CN2CCCOCCNC(=O)[C@@H]3CCCC[C@@H]32)o1 -0.322%, CN1CCCCCCN(C(=O)c2ccc3ccccc3n2)[C@H]2CCC[C@H]2C1=O 2.88%, Cc1nn2c(c1-c1ccccc1OCc1ccccc1)N(C(=O)Cc1ccccc1)CCC2 -3.18% [at 57.5 µM], CC(C)CC(=O)N1CCCC(Cc2nc(C3CCOCC3)no2)C1 (stereo not drawn) -3.12%, CNC(=O)[C@H]1C[C@H](Oc2ccccc2)CN1Cc1cn(C)c2ccc(OC)cc12 -3.36%, CCN1CCC2(CCC1=O)CN(Cc1cscn1)CCN2C (stereo not drawn) 2.24%, O=C(NC1CCCCC1)N1CCc2n[nH]c(=O)n2CC1 -1.02%, C=CCS(=O)(=O)N1CCC2(CCCN(CCCc3ccccc3)C2=O)C1 (stereo not drawn) -6.48%, COC[C@H]1CCCN1[C@@H]1[C@H](O)[C@H](CO)O[C@@H]1CNCc1ccc(F)cc1 9.85% [at 57.5 µM], Cc1nc(N(C)C2CCCCC2)ncc1C(C)NC(=O)C1(CO)CC1 (stereo not drawn) 1.76%, CNC(=O)[C@@H]1CN(Cc2ccncc2)C[C@H]1COC -1.4%, CC(C)c1nccn1CCCNC(=O)c1ccc(-c2cccnc2)nc1 0.34%, CCCNC(=O)N[C@@H]1C[C@H](COc2cccc(C)n2)[C@@H](O)[C@H]1O 8.42% [at 57.5 µM], CNC(=O)c1cc(C)nc2onc(C3CCCN([S+](=O)([O-])c4ccc(C)cc4)C3)c12 (stereo not drawn) 2.21%, Cc1nccn1CC(=O)N1CCCn2cc(-c3cccc(C#N)c3)nc21 3.64%, CC[C@H]1CN(C(=O)c2ccnc(Cl)c2)CC[C@H]1CC(=O)N1CCC(C(N)=O)CC1 24.3% [at 57.5 µM], Cc1csc2c(NCCC3CN(c4cnn(C)c(=O)c4)CCO3)ncnc12 (stereo not drawn) 30.3%, O=S(=O)(Cc1ccccc1)N1CCC(n2cnnc2C2CC2)CC1 -3.91%, O=S(=O)(N[C@H]1[C@H](O)[C@H](O)C[C@@H]1c1ccc(C(F)(F)F)nc1)c1ccc(Cl)cc1 33.7%, Cc1cc(CN2CCC3(CC2)CN(C2CCC2)CC3CO)n(C)n1 (stereo not drawn) -7.47%, CCOCCCNC(=O)c1c(C)noc1-c1ccc(OC(F)(F)F)cc1 23.1%, CN(Cc1cc(C2CC2)on1)Cc1nnc(C2CC(N)C2)n1C1CC1 (stereo not drawn) 0.335%, Cc1nc(CCNC(=O)c2cnc(-c3cccnc3)nc2)cc(=O)[nH]1 27.1%, O=C(CCC1CCCC1)N1CCCC1c1nc(CCOCC2CC2)no1 (stereo not drawn) -3.06%, O=C(N1CC(Oc2ccc(-c3noc(-c4ccccc4)n3)cc2)C1)C1(c2ccccc2)CC1 -1.27%, CN(CC1CCOC1)C(=O)Cc1ccccc1 (stereo not drawn) -1.49%, CC(C)(C)C(=O)Nc1nc2c(s1)C[C@@H]1[C@](C)(CO)[C@H](O)CC[C@@]1(C)[C@@H]2CC(=O)O 10.8% [at 57.5 µM], O=C(NCc1ccncc1)c1nc2c(o1)CCN(CCCc1ccccc1)CC2 1.72% [at 57.5 µM], COc1cc(Cl)ccc1C(=O)N1CC[C@@H]2CN(S(C)(=O)=O)[C@@H]2C1 -6.52%, C[C@@]1(O)CCN(C2CCN(c3ccc(F)cc3)CC2)C[C@@H]1O 2.75%, COc1cccc(CN2CCC3(CC2)C(C(=O)O)CC(=O)N3C)c1OC (stereo not drawn) 17.9%, CCS(=O)(=O)N1C[C@@H](C(=O)NCc2ccc(C)o2)[C@H](c2ccncc2)C1 13.5%, CCOC(=O)[C@@H]1[C@H]2c3ccccc3N(CCOC)C(=O)[C@H]2N(C(=O)c2ccccc2)[C@@H]1c1ccccc1 9.89%, COc1cccc(CN2CCc3nn(Cc4ccccc4)c(=O)n3CC2)n1 2.87%, CC(C)C(=O)N1CCn2c(nnc2C2CCN(Cc3cc(Cl)ccc3F)C2)C1 (stereo not drawn) 8.75%, CN(C)C[C@@H]1CN(Cc2ccncc2)C[C@H]1NC(=O)Cc1ccsc1 -3%, c1ccc(CN(Cc2nc(-c3ccccn3)no2)CC2CC2)cc1 -0.609%, COC(=O)N(C)Cc1cccc(C(F)(F)F)c1 6.8% [at 57.5 µM], O=C(c1ccc(Cl)s1)N1CCC2(COc3ncccc3S(=O)(=O)N2)C1 (stereo not drawn) 0.515%, CN(C)C(=O)c1nc(-c2cccc(C(F)(F)F)c2)c2cnccn12 -4.53% [at 57.5 µM], Cc1ccc(NC(=O)N2CCCC(c3nnc(CN(C)C)n3C)C2)cc1C (stereo not drawn) 4.57%
